Earlier results, collected in patent publication US10532050B2, “Formulations of oxabicycloheptanes and oxabicycloheptenes” (priority 2013, dated 2020).
At least one compound was matched to its structure with a doubt left.

Key:
rat fibrosarcoma model = conditions: Zhang et al., Biomaterials (2010)
[1] = system: glioblastoma multiforme (GBM) xenograft cells; conditions: Lu et al., J. Neurosurg. 113:225-233 (2010)
[2] = system: metastatic pheochromocytoma (PHEO); conditions: administered with temozolomide (TMZ); mouse model of metastatic PHEO; Martiniova et al., Plos One (2011)

CN1CCN(C(=O)C2C(C(=O)O)[C@H]3CC[C@@H]2O3)CC1 (stereo partly drawn) [LB-100, 3-(4methylpiperazine-carbonyl)-7-oxalobicyclo[2.2.1]heptane-2-carboxylic acid]
Effectiveness of the standard anti-sarcoma chemotherapeutic agent doxorubicin (rat fibrosarcoma model): increase the effectiveness | Growth of glioblastoma multiforme (GBM) xenograft cells [1]: inhibit the growth | Tumor growth [2]: delay tumor growth
